Among all 580,000 compounds or so, about 6,100 (1.1%) were called active. The shares of active, inactive and inconclusive entries below differ from those in the screen. Calls follow the shape of the dose curve; as a rule, active = well fitted inhibition curve with a large enough effect; inconclusive = small, poorly fitted or top-dose-only effect, or another doubt; inactive = no such curve, though single readings can be large or run the other way. Where the call is inconclusive, the potency comes from a doubtful curve fit.
These molecules were tested against Polyunsaturated fatty acid lipoxygenase ALOX12 (Homo sapiens) (UniProt P18054) (assay: Primary qHTS assay for inhibitors of human arachidonate 12S-lipoxygenase (ALOX12): Round 2). Conditions: purified 12hLO, xylenol orange hydroperoxide absorbance; series mostly up to 108 µM.
Outline: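 Purified human 12hLO (150 nM final) in 25 mM Hepes, 0.01% Triton X-100, pH 7.0 was preincubated 15 min at room temperature with compound. Then 40 uM arachidonic acid was added, 30 min. Hydroperoxide was read by Fe-XO absorbance ratio 573/405 nm.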
Potency is read from the fitted curve at half-maximal effect.

Amino acid sequences for entries named in this document (tags omitted). A change or cut given only in a name is not applied to a line headed by its entry.
UniProt P18054: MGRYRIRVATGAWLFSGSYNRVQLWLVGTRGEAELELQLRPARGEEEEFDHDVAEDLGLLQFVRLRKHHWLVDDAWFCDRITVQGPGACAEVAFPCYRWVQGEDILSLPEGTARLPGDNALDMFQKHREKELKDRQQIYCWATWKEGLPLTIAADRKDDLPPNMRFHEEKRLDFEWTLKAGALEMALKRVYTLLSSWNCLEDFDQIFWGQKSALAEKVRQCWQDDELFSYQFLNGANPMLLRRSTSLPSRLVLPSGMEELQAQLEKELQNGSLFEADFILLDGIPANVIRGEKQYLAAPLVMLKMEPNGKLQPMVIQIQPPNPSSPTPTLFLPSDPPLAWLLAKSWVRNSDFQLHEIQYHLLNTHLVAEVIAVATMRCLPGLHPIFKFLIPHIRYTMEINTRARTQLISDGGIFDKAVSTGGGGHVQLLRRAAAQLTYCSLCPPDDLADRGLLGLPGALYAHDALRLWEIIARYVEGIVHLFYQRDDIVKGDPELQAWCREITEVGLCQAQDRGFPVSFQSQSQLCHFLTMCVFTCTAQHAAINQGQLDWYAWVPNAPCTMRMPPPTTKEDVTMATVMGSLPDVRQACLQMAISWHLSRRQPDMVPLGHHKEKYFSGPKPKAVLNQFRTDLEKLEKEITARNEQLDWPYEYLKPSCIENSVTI

Row | SMILES | Potency
1 | CCC(C(=O)NCc1ccco1)n1nc(-c2ccc(OC)cc2)ccc1=O (stereo not drawn) | inactive
2 | CONC(=O)c1ccc(-c2cccc3nccn23)cc1 | inconclusive: 17.8 µM [inhibitor, full curve, poor fit]
3 | COc1ccccc1C(=O)N1CCN(c2oc(-c3ccc(Cl)cc3)nc2C#N)CC1 | inconclusive: 35.5 µM [inhibitor, single point]
4 | O=C(C[n+]1ccncc1)c1ccccc1 | inconclusive: 89.1 µM [inhibitor, single point]
5 | COc1ccc(S(=O)(=O)NCC2CCCN(C(=O)c3ccco3)C2)cc1 (stereo not drawn) | inconclusive: 126 µM [inhibitor, single point]
6 | Cc1ccccc1-n1c(-c2ccoc2C)n[nH]c1=S | inconclusive: 112 µM [inhibitor, partial curve, poor fit]
7 | O=C(O)CSCc1nc2ccccc2[nH]1 | inconclusive: 28.2 µM [inhibitor, partial curve]
8 | Cc1cccc(-c2ccccc2C(=O)O)c1 | inactive
9 | CC(=O)N1CCC[C@@]2(CCN(C(=O)Nc3cccc(C#N)c3)C2)C1 | inactive
10 | COC(=O)c1sc(S(=O)(=O)Nc2cccc(Cl)c2Cl)c(C(=O)OC)c1C | inconclusive: 89.1 µM [inhibitor, partial curve, poor fit]
11 | COCCN(C(=S)Nc1c(C)cc(C)cc1C)C(C)c1cccs1 (stereo not drawn) | inactive
12 | CC(NC(=O)C1CCCCC1)C(c1cccs1)N1CCOCC1 (stereo not drawn) | inactive
13 | CCN(CC)c1nn2c(=O)c(C(=O)NCc3cccc(C)c3)cnc2s1 | inactive
14 | O=C(COc1ccc(/C=N/NC(=O)c2ccccc2Br)cc1)Nc1ccccc1 | inconclusive: 8.91 µM [inhibitor, partial curve, poor fit]
15 | CCOC(=O)c1[nH]c(C)c(CCC(=O)NCc2ccccc2C)c1C | inconclusive: 0.112 µM [inhibitor, full curve, poor fit]
16 | Cc1ccc2oc(SCc3noc(CCC(=O)Nc4ccc5ccccc5c4)n3)nc2c1 | inactive
17 | O=C1COc2ccc(C(=O)COC(=O)c3ccccc3[N+](=O)[O-])cc2N1 | inconclusive: 56.2 µM [inhibitor, partial curve, poor fit]
18 | COc1ccccc1NC(=O)COc1nc(C(C)C)c2c(c1C#N)CC(C)(C)OC2 | inactive
19 | Clc1ccc(SCCOCCN2CCCCCC2)cc1 | active: 0.562 µM
20 | Cn1cc(-c2ccccc2Oc2ccccc2)c2nc(CN3CCNC(=O)C3)cn2c1=O | inconclusive: 25.1 µM [inhibitor, full curve]
21 | COCCn1c(C)cnc1CCNC(=O)C1(c2ccc(OC)cc2)CC1 | inactive
22 | CCOC(=O)C1=CCC(c2cccc3ccccc23)N(S(=O)(=O)c2ccc(C)cc2)C1 (stereo not drawn) | inactive
23 | N#Cc1c(-c2ccccc2)nc(-c2ccccc2)[nH]c1=O | inactive
24 | CC(c1ccccc1F)n1cc(C(=O)NCCCn2ccnc2)nn1 (stereo not drawn) | inactive

Row | SMILES | Potency
25 | COc1ccccc1N1CCN(C(=O)c2cc3cn(C4CCCC4)cc3s2)CC1 | inactive
26 | Cc1nc(CN2C[C@H](C(=O)NCc3cccc(F)c3)C[C@@H]2c2ccc(F)cc2)cs1 | inactive
27 | COc1ccc(CC2(C)OC(c3ccc(Cl)cc3)=NN2C(C)=O)cc1 (stereo not drawn) | inconclusive: 50.1 µM [inhibitor, partial curve, poor fit]
28 | CC(=O)C(=Cc1ccc(Cl)cc1)C(=O)c1ccccc1 | inconclusive: 100 µM [inhibitor, single point]
29 | COc1ccc(CC(=O)OCC(=O)c2ccc[nH]2)cc1 | inactive
30 | COc1ccc(-c2noc(CN3CCN(c4cccc(Cl)c4)CC3)n2)cc1 | inactive
31 | CCNc1c(NC(=O)Nc2ccc(C)cc2)c(=O)oc2ccccc12 | inconclusive: 50.1 µM [inhibitor, partial curve, poor fit]
32 | CCC1CCCCN1S(=O)(=O)c1ccc(NC(=O)c2ccncc2)cc1 (stereo not drawn) | inactive
33 | CCCn1c(O)c(CN2CCCCC2)c(C)c(C#N)c1=O | inconclusive: 39.8 µM [inhibitor, partial curve, poor fit]
34 | CCOc1ccc(NC(=O)C(=O)c2c[nH]c3ccccc23)cc1 | inactive
35 | Cc1cc(C(=O)NNC(=S)NCc2ccco2)n(C)n1 | inactive
36 | CCCc1noc(-c2cn(C3CCN(C(=O)c4ccsc4)CC3)nn2)n1 | inconclusive: 7.08 µM [inhibitor, full curve]
37 | CCC(C)(C#N)NC(=O)c1ccc2c(c1)CCC2 (stereo not drawn) | inconclusive: 2.82 µM [inhibitor, full curve, poor fit]
38 | Cc1cccc(C(=O)NCC(c2ccco2)N2CCc3ccccc32)c1 (stereo not drawn) | inconclusive: 126 µM [inhibitor, partial curve, poor fit]
39 | Cc1ccc([C@H]2C[C@@H](O)[C@@H](O)[C@@H]2NCc2ccccc2)cc1 | inactive
40 | N#CCOc1ccccc1/C=C/c1nc2ccccc2c(=O)[nH]1 | inconclusive: 44.7 µM [inhibitor, partial curve, poor fit]
41 | C[C@H]1NS(=O)(=O)c2cc(Cl)ccc2O[C@@H]1c1ccccc1 | inconclusive: 70.8 µM [inhibitor, partial curve, poor fit]
42 | O=C(CCc1cc2ccccc2o1)NC12CC3CC(CC(C3)C1)C2 | inconclusive: 8.91 µM [inhibitor, full curve, poor fit]
43 | Cc1c(C2(O)CCCCC2)[nH]c2ccc(C(F)(F)F)cc12 | inconclusive: 44.7 µM [inhibitor, partial curve, poor fit]
44 | N#Cc1nc(-c2ccco2)oc1N1CCN(c2ccccc2)CC1 | inconclusive: 141 µM [inhibitor, single point]
45 | COC(=O)c1nc2n(n1)C(c1cccc(Br)c1)C(C(=O)Nc1ccc(C)cc1C)=C(C)N2 (stereo not drawn) | inconclusive: 56.2 µM [inhibitor, single point]
46 | N#CC1=C(N)OC2=C(CCc3ccccc32)C1c1ccccc1Cl (stereo not drawn) | inconclusive: 39.8 µM [inhibitor, partial curve]
47 | CCc1ccc(CNc2ccc(N3CCN(C(C)=O)CC3)cc2)cc1 | active: 31.6 µM
48 | COC(=O)CCCC1=CC2=CC(=O)C(C)(OC(=O)c3cccs3)C(=O)C2=CN1CCCCO (stereo not drawn) | inconclusive: 31.6 µM [inhibitor, partial curve]

Fetched one by one from the entries so far:
Row | SMILES | Potency
28 | CC(=O)C(=Cc1ccc(Cl)cc1)C(=O)c1ccccc1 | inconclusive: 100 µM [inhibitor, single point]
38 | Cc1cccc(C(=O)NCC(c2ccco2)N2CCc3ccccc32)c1 (stereo not drawn) | inconclusive: 126 µM [inhibitor, partial curve, poor fit]
